Our source for the binding values is patent publication US20150376252A1.

No constants are given. Whether binding was seen depends on the method and setting. Some results given as binding are weak or reduced against the parent protein; the word gives no strength. Sequences can lack the tags named with a protein.

Experiment [1] deals with T1, Tspan12-YFP (human Tspan12 with YFP at the C-terminus) (human) (UniProt O95859).
T1 sequence (looked up): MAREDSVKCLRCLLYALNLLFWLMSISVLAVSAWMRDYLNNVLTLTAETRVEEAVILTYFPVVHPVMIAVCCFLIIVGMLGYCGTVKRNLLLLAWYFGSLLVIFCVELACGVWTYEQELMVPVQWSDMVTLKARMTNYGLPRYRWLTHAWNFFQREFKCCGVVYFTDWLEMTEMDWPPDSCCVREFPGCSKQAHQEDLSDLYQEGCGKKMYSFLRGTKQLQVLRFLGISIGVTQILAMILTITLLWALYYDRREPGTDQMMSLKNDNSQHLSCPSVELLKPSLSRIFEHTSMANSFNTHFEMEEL
Kind of experiment: static BRET in transfected COS-1 cells. For orientation: Bioluminescence resonance energy transfer reports proximity on the nanometre scale.

Experiment [2] deals with T1, Tspan12-YFP (human Tspan12 with YFP at the C-terminus) (human). Kind of experiment: BRET in COS-1 cells (FIG. 6D).

B1: Tspan12-Rlu (human Tspan12 with Renilla luciferase at the C-terminus) (protein, UniProt O95859 1-305, looked up, not shown: large carriers)
chain: T1 sequence (looked up)
For the molecule B1, the binding entry in experiment [1] and in experiment [2] was “binds” in each case.
